# Experimental data as given in patent US20070141120A1, “Peptide having an ace inhibiting effect” (priority 2003, published 2007).
# pIC50: −log10 of the molar value. Part of at least one peptide drawing is inferred or uncertain, most often the ends. Peptide text beside a SMILES is read from it.
# Test system: ACE
# Experiment: ACE-inhibition assay 2: modified Matsui assay
# Assay type: biochemical
# Conditions: substrate Hip-His-Leu, pH 8.3, 37° C., 30 min
# Experimental: This ACE inhibition activity was assayed according to the method of Matsui et al. (Matsui, T. et al. (1992) Biosci. Biotech. Biochem. 56: 517-518) with the modifications described below.
# For each sample 75 μl 3 mM hippuryl histidine leucine (Hip-His-Leu, Sigma chemicals Co.; the chemical was dissolved in 250 mM Borate containing 200 mM NaCl, pH 8.3); 20 μl 0.1 U/ml ACE (obtained at Sigma) or H2O, and 25 μl sample or H2O were mixed (see Table 1). The mixtures were incubated at 37° C. and stopped after 30 min by adding 125 μl 0.5 M HCl. […] After incubation for 20 min. at 37° C., 4 ml 4 mM Na2SO3 in 0.2 M NaH2PO4 was added and the absorbance at 416 nm was measured with UV/Vis spectrophotometer (Shimadzu UV-1601 with a CPS controller, Netherlands).
# The amount of ACE inhibition (ACEI) activity was calculated as a percentage of inhibition compared with the conversion rate of ACE in the absence of an inhibitor: ACEI (%)=(((C1−C2)−(S1−S2))/(C1−C2))*100 (1)
# C1=Absorbance without ACE inhibitory component (=max. ACE activity) [AU].
# C2=Absorbance without ACE inhibitory component and without ACE (background) [AU].
# S1=Absorbance in the presence of ACE and the ACE inhibitory component [AU].
# S2=Absorbance in the presence of the ACE inhibitory component, but without ACE [AU].
smiles,measurement,value
NCCCC[C@H](N)C(=O)N1CCC[C@H]1C(=O)N1CCC[C@H]1C(=O)O [KPP] (H-Lys-Pro-Pro-OH; N-terminus and C-terminus assumed),pIC50,4.30
